Some entries share one result that the patent states for a list of compounds.
What was measured:
[1] = tested on: Pyrenophora teres; test: In vivo test on Pyrenophora teres (preventive spray on barley plants); details: dose of 330 ppm; barley plants (Express variety); grading 12 days after contamination, in comparison with control plants
Method: The active ingredient tested is prepared by potter homogenisation in a concentrated suspension type formulation at 100 g/l. […] Barley plants (Express variety) in starter cups, sown on a 50/50 peat soil-pozzolana substrate and grown at 12° C., are treated at the 1-leaf stage (10 cm tall) by spraying with the aqueous suspension described above. Plants, used as controls, are treated with an aqueous solution not containing the active material. After 24 hours, the plants are contaminated by spraying them with an aqueous suspension of Pyrenophora teres spores (12,000 spores per ml). The spores are collected from a 12-day-old culture. The contaminated barley plants are incubated for 24 hours at about 20° C. and at 100% relative humidity, and then for 12 days at 80% relative humidity. Grading is carried out 12 days after the contamination, in comparison with the control plants.

[2] = tested on: Alternaria brassicae; test: In vivo test on Alternaria brassicae (preventive spray on radish plants); details: dose of 330 ppm; radish plants (Pernot variety); grading 6 to 7 days after contamination, in comparison with control plants
Method: The active ingredient tested is prepared by potter homogenisation in a concentrated suspension type formulation at 100 g/l. […] Radish plants (Pernot variety) in starter cups, sown on a 50/50 peat soil-pozzolana substrate and grown at 18-20° C., are treated at the cotyledon stage by spraying with the aqueous suspension described above. Plants, used as controls, are treated with an aqueous solution not containing the active material. After 24 hours, the plants are contaminated by spraying them with an aqueous suspension of Alternaria brassicae spores (40,000 spores per cm^3). The spores are collected from a 12-13-day-old culture. The contaminated radish plants are incubated for 6-7 days at about 18° C., under a humid atmosphere. Grading is carried out 6 to 7 days after the contamination, in comparison with the control plants.

SMILES: Cc1ccsc1CCNC(=O)c1ccsc1I [Compound B-1]
- protection (good (at least 50%) to total) [1]: at least 50%
- protection (good (at least 50%) to total) [2]: at least 50%

SMILES: Cc1cc(C(=O)NCCc2sccc2C)c(C(F)(F)F)o1 [Compound C-1]
- protection (good (at least 50%) to total) [1]: at least 50%
- protection (good (at least 50%) to total) [2]: at least 50%

SMILES: Cn1cc(CCNC(=O)C2=C(C(F)(F)F)OCCS2)c(C(F)(F)F)n1 [Compound I-1]
- protection (good (at least 50%) to total) [1]: at least 50%
- protection (good (at least 50%) to total) [2]: at least 50%

Reference: US7825068B2, “Heterocyclylethylcarboxamide derivatives” (Bayer Cropscience AG, priority 2005, dated 2010)
